Results are given in words; binding and its absence hold for the method and conditions named. In cells and extracts the contact can be indirect. Here binding means that the protein was enriched with, or labelled near, the bait; the list need not be complete. A no says only that the protein was not detected with the bait. Sequences can lack the tags named with a protein.
Molecular target: T1, myc‐BirA*‐CLASP1_(1256–1538) (UniProt Q7Z460)
T1 sequence: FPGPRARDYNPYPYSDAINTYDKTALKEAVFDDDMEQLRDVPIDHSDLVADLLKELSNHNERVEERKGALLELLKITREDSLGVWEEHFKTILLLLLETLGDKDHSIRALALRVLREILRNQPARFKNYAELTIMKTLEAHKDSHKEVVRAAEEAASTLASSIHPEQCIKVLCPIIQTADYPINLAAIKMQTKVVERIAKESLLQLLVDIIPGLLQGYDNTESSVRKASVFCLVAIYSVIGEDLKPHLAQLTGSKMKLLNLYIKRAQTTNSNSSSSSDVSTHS
Assay: proximity labelling; BioID: myc‐BirA* fusion protein (bait) expressed in TaC12 cells, 50 μM biotin, stringent lysis, streptavidin Dynabeads, on‐bead tryptic digest and mass spectrometry; control: TaC12 WT cells

Amino acid sequences for entries named in this document (tags omitted).
UniProt F1MDH3: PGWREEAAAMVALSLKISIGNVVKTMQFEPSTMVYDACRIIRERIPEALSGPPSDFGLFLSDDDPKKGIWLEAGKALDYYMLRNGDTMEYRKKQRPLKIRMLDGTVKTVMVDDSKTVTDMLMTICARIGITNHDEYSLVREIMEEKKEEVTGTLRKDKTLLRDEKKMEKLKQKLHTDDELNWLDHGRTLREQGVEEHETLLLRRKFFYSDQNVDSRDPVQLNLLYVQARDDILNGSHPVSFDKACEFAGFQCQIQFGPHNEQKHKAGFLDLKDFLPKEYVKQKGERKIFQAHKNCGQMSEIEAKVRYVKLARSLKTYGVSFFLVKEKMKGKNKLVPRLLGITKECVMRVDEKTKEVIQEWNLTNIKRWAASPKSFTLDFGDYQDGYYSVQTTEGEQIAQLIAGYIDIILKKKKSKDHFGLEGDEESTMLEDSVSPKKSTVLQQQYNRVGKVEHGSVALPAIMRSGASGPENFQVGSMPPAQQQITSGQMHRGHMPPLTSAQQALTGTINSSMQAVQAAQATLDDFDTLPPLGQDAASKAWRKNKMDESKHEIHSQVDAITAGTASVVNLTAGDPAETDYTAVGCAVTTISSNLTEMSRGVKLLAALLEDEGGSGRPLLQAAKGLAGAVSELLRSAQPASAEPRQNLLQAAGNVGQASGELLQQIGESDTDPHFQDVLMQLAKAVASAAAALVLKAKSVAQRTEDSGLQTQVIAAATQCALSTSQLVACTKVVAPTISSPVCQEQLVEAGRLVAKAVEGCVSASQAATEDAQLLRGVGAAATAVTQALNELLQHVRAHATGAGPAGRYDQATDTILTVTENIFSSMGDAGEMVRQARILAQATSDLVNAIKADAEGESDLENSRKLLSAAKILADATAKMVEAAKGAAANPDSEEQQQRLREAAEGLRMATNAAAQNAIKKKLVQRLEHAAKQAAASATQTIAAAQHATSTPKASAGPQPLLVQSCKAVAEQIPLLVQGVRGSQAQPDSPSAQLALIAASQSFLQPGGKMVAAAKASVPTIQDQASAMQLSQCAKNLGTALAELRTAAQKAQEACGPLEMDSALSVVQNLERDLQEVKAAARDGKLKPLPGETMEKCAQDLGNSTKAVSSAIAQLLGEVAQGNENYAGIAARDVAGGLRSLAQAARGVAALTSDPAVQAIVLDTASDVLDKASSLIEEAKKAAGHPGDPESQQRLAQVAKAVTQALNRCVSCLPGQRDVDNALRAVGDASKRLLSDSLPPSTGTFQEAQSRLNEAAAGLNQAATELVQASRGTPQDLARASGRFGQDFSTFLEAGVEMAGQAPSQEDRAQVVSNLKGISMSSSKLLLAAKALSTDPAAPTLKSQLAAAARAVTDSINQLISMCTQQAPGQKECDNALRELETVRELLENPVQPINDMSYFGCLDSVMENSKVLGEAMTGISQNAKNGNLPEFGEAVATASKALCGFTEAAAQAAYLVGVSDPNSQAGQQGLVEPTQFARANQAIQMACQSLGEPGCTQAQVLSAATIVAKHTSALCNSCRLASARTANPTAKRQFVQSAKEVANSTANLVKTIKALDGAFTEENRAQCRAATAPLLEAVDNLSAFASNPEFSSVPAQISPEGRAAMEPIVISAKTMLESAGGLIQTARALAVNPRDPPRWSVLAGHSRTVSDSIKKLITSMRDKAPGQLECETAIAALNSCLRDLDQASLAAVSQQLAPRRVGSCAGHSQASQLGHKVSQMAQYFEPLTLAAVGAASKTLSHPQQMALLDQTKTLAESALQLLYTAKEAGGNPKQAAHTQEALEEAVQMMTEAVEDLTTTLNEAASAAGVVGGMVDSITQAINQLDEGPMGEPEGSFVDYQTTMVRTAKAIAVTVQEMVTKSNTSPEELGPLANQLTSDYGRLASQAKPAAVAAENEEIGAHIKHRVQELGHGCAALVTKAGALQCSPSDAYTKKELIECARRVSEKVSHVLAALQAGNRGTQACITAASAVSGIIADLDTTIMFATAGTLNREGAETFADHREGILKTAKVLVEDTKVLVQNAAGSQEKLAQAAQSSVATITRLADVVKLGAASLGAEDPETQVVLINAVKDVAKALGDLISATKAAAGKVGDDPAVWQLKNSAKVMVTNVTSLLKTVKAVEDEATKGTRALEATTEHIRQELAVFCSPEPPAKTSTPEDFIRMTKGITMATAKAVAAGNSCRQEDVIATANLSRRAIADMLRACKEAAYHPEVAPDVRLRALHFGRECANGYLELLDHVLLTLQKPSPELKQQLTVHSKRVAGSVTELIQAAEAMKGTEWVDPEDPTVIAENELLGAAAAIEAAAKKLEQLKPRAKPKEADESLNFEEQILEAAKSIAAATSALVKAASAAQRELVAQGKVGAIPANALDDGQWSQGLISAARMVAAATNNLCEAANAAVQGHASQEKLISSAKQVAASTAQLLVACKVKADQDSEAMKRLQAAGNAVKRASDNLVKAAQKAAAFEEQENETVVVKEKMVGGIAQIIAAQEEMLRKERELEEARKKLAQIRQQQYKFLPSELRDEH

Question: Which binding does the source give for Talin‐1 (from UniProt F1MDH3 1-2527) here?
Answer: no binding

Reference: article PMC6033098
